No constants are given. Whether binding was seen depends on the method and setting. In cells and extracts the contact can be indirect. Some results given as binding are weak or reduced against the parent protein; the word gives no strength. Where a sequence is shown, tags or fusion partners need not be part of it.

The chains behind the UniProt entries cited, without tags or fusion partners.
UniProt P33115: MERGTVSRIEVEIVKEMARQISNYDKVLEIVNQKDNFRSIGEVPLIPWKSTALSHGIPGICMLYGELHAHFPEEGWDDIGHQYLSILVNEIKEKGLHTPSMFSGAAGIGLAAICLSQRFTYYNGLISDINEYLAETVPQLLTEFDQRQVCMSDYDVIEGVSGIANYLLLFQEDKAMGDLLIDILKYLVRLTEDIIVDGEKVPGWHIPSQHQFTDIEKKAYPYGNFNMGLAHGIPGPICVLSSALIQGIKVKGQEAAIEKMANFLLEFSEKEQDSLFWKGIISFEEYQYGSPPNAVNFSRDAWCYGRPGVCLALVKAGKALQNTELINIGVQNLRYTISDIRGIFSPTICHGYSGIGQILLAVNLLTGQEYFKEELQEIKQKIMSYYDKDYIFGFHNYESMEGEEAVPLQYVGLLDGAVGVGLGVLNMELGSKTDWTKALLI

In patent publication US20050164339A1 one finds binding data, which are given here for 1 molecule.

The target in this experiment is endogenous SpaC (Bacillus subtilis) (UniProt P33115). The experiment is described as follows: co-immunoprecipitation: purified His6-SpaB added to extracts of subtilin producing cells, precipitated with anti-His-tag antibodies, Western blot with anti-SpaC antibodies.

B1: His6-SpaB (enzyme)
chain: MKSLYTPTDYYMIRVPLVHQDLKNENSQDIDQLLHDLCNDSLFREQILVSSRTLYETIHTFLQAPDKLKGKKKRNFQQAILKYATRRATRTTPFGLFSSVGIGSFSDKNHLSFNQHSFYKKARVDLEWLYQLIRKLENEYTDRLSFTLNSACYIKGDRAYLLYSTDGKSEEVSVRATSVFYLINELCGESAAYQDIIRCLIDNYPNTPINKINQYVADLIDKEFLISNLRPPMTVSDQFQYLIDQAESRHIPNELIQACKDIQYQIDAYNRITIGEGEHQYLNLIETMNKLIKASSPLQVDAGLADSSIQLDNETSLAISELASMFTYMASPSANTLDHLEKYHNVFLERYGYEREVPLLEMLCSSTGIGAPATYTNPANEFFEETSFGEQFSPEMKQFFMRKYFESVRKKAPIQLDDETFHRICNSEIADEEIPLSFELNFFVKLRNGRVKLYLGPNVGSTRAGKTFGRFSHMSDSISEIIKTLHNKEKELTECNTKVCELSIVPNQTRSGNVTRNVSYREKEMSLFTNSALHLNDSVKAEDILIGINKDHNFYARHKTTGEILSFESNHMFNPLLMTNAVRFLLEISRDGKRKWNDFPWFSIYSDFKYIPEIKYKEITLSCEQWLIYKNDLSMHSNASLEEIKSPFFEFHRTYELPQTFYIVNADNRLLIDIENDCTLDVFFWELKKTNHNQPLQLVAVEHDADALMDRNQNDYSGEIVVPLLRKQPEKPLYLPVLNAIEGSGSDRIKMPFEDWLFIKLYCKQTREEELIAFEIADFYNQISDQYPVRHFFMRYRDPKPHIRLRFNGKAEVLYSLFPQLLNWLKSLREKGLVSESVITQYEREIERYGGLSLMEAAEQLFCEDSKVVEMMIRMHRMKDITISKEIAGMVSVIQFLEQFELTFEEQLTFLERNSLQNEYRTEFKKDREMYIEICNSDRDWDNLKKTSDGGMLYETLKTRKMAAAHYAFLIKKAFDNKDEVYSRIGSIIHLHCNRLFGTDRELENKILTLCRHSLYAQRYQKMNGSLAWK
Turning to B1, the binding entry was “binds”.
